{"source": "patent US9132174", "about": "(ANCHORED RSK3 INHIBITORS, dated 2015)", "molecules": {"B1": {"name": "ERK-phosphorylated His-RSK3 (enzyme)", "chain": "MDLSMKKFAVRRFFSVYLRRKSRSKSSSLSRLEEEGVVKEIDISHHVKEGFEKADPSQFELLKVLGQGSYGKVFLVRKVKGSDAGQLYAMKVLKKATLKVRDRVRSKMERDILAEVNHPFIVKLHYAFQTEGKLYLILDFLRGGDLFTRLSKEVMFTEEDVKFYLAELALALDHLHSLGIIYRDLKPENILLDEEGHIKITDFGLSKEAIDHDKRAYSFCGTIEYMAPEVVNRRGHTQSADWWSFGVLMFEMLTGSLPFQGKDRKETMALILKAKLGMPQFLSGEAQSLLRALFKRNPCNRLGAGIDGVEEIKRHPFFVTIDWNTLYRKEIKPPFKPAVGRPEDTFHFDPEFTARTPTDSPGVPPSANAHHLFRGFSFVASSLIQEPSQQDLHKVPVHPIVQQLHGNNIHFTDGYEIKEDIGVGSYSVCKRCVHKATDTEYAVKIIDKSKRDPSEEIEILLRYGQHPNIITLKDVYDDGKFVYLVMELMRGGELLDRILRQRYFSEREASDVLCTITKTMDYLHSQGVVHRDLKPSNILYRDESGSPESIRVCDFGFAKQLRAGNGLLMTPCYTANFVAPEVLKRQGYDAACDIWSLGILLYTMLAGFTPFANGPDDTPEEILARIGSGKYALSGGNWDSISDAAKDVVSKMLHVDPHQRLTAMQVLKHPWVVNREYLSPNQLSRQDVHLVKGAMAATYFALNRTPQAPRLEPVLSSNLAQRRGMKRLTSTRL", "modifications": "phosphorylated in vitro with ERK2; sites of this preparation not given", "notes": "also called Phospho-His-RSK3 (ERK2); not shown: His tag"}}, "key": {"[1]": {"target": "myc-tagged mAKAPβ (muscle A-kinase anchoring protein beta), full-length (Rattus norvegicus (Rat)) (UniProt Q9WVC7)", "assay": "co-immunoprecipitation with anti-HA antibody, HEK293 cells"}, "[2]": {"target": "myc-tagged mAKAPα (UniProt Q9WVC7)", "assay": "co-immunoprecipitation with anti-HA antibody, HEK293 cells"}, "[3]": {"target": "T1, myc-tagged mAKAP 1286-1833 (UniProt Q9WVC7)", "T1 sequence (looked up)": "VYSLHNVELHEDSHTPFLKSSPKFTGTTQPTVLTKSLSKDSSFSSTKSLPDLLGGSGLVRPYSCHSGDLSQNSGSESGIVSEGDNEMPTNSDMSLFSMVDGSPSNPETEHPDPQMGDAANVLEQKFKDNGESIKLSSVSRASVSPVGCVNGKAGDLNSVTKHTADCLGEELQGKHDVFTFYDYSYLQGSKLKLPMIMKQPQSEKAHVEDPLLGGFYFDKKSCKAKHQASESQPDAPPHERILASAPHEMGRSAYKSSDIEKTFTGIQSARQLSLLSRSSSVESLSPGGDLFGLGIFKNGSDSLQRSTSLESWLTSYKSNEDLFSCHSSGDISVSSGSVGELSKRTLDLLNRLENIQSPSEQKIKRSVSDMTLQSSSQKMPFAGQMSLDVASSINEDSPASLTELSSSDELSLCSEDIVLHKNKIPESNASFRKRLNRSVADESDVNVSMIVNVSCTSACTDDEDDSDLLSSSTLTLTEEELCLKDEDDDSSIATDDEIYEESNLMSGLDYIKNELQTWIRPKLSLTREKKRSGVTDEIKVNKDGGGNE", "assay": "co-immunoprecipitation with myc-tag antibody"}, "[4]": {"target": "T2, His-tagged mAKAP 1286-1833 (bacterially expressed) (UniProt Q9WVC7)", "T2 sequence (looked up)": "T1 sequence (looked up)", "assay": "SPR (BIAcore T100), His-mAKAP 1286-1833 immobilised, His-RSK3 as analyte"}, "[5]": {"target": "T2, His-tagged mAKAP 1286-1833 (bacterially expressed)", "assay": "SPR, purified bacterially expressed proteins"}}, "note": "Results are given in words; binding and its absence hold for the method and conditions named. For part of these data: In cells and extracts the contact can be indirect. Some binding calls cover weakened binding; strength is not graded here. For part of these data: Where a sequence is shown, tags or fusion partners need not be part of it."}
{"molecule": "HA-tagged RSK3 (p90 ribosomal S6 kinase type 3), full-length (from UniProt Q15349 1-733) (enzyme)", "values": [{"measurement": "binding", "setting": "[1]", "result": "binds"}, {"measurement": "binding", "setting": "[2]", "result": "binds"}, {"measurement": "binding", "setting": "[3]", "result": "binds"}]}
{"molecule": "His-tagged full-length RSK3, unphosphorylated (bacterially expressed) (from UniProt Q15349 1-733) (enzyme)", "values": [{"measurement": "binding", "setting": "[4]", "result": "binds"}, {"measurement": "binding", "setting": "[5]", "result": "binds"}]}
{"molecule": "B1", "values": [{"measurement": "binding", "setting": "[5]", "result": "binds"}]}
